# Results from US20060014677A1, “Method for maximizing efficacy and predicting and minimizing toxicity of calcineurin inhibitor compounds” (Isotechnika International Inc., priority 2004, published 2006).
# System: calcineurin
# Experiment: Calcineurin inhibition assay on whole blood lysates, PK-PD sigmoid Emax model (Study A, phase II)
# Format: in vivo, human
# Details: FIG. 3A/3B; day 7 of the 12 week trial
smiles,measurement,value
"C/C=C/C[C@@H](C)[C@@H](O)[C@H]1C(=O)N[C@@H](CC)C(=O)N(C)CC(=O)N(C)[C@@H](CC(C)C)C(=O)N[C@@H](C(C)C)C(=O)N(C)[C@@H](CC(C)C)C(=O)N[C@@H](C)C(=O)N[C@H](C)C(=O)N(C)[C@@H](CC(C)C)C(=O)N(C)[C@@H](CC(C)C)C(=O)N(C)[C@@H](C(C)C)C(=O)N1C [cyclosporin A, reference compound]",correlation (R) between trough concentration (C0) and Emax,no measurable correlation
